Taken from: PubChem BioAssay AID1159578 (Peter MacCallum Cancer Centre, 2015)
This is a random part of about 18,000 reagents. About 1,030 of them (5.7%) count as active. 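Inactive calls also include pools with fewer than 3300 nuclei, whose migration was not assessed.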 The raw values are shown without normalisation. Unmarked entries are inactive. Further read-outs or replicates are left out here.

- Screen: 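Genome-wide hunt for genes controlling movement of lymphatic endothelial cells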 (primary screen)
- Cells: human lymphatic endothelial cells
- Reagent: siRNA pool against human genes, 40 nM
- Timing: 48 h after transfection
- Measured: 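Cells stained with dye and imaged after a scratch; covered wound area and nuclei counted, duplicates averaged, migration set against mock wells and turned into a robust z-score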
- Scale: migration robust z-score: higher = faster migration into the scratch; nuclei per well: higher = more cells in the well
- Active means: 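Pools averaging fewer than 3300 nuclei are never called; remaining pools count as changed when migration robust z lies outside -2 to 2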
- Calls: active = migration changed; inactive = no migration change, or too few cells

gene symbol	migration robust z-score	nuclei per well, duplicate mean
GPR15LG	0.34	5124
RAP2C	-0.73	3828
STAG3L2	0.74	6156
FBXO7	-2.78 (active)	4724
KMT2D	-1.64	3289
EMILIN1	0.36	4885
PIK3CD-AS1	0.19	4796
FAM76B	-1.64	5724
MEIG1	-0.09	5809
RNF19A	1.22	6112
PPARG	0.99	3378
GPT	0.13	4900
GJB3	0.16	5596
CFAP77	-1.02	5780
EBF2	-1.23	5390
P3H1	0.42	6140
PMCH	0.72	5697
MFAP3L	-1.27	5408
FBXW11	-2.86 (active)	5392
DNLZ	0.03	5700
SEPHS1	0.75	5289
COMT	-3.21	2420
UBE2E3	-1.04	5776
HOXD12	0.14	5034
CFAP119	0.24	8333
IHO1	-0.39	6986
RAI1	1.05	5822
CBL	-0.39	5828
FBXO31	0.55	5468
BTNL9	0.61	6136
SPEG	-0.26	4134
C16orf46	0.54	5964
TMEM18	0.19	7414
SERPINA6	-1.29	4995
C15orf40	-0.02	6802
WDR70	1.08	4928
USP6	1.58	5360
NDUFA10	0.44	6784
NT5C3A	0.42	5758
